Reference: PubChem BioAssay AID504467 (National Center for Advancing Translational Sciences (NCATS), 2011)
Among all 330,000 compounds or so, about 7,700 (2.3%) were called active. Inconclusive means that the source gave no clear call. Such entries were picked first, then a sample of the others. The call rests on the fitted dose curve; in most records, active means well fitted inhibition curve with a large enough effect; inconclusive means small, poorly fitted or top-dose-only effect, or effect the other way; inactive means flat fitted curve, though single readings scatter. Where the call is inconclusive, the potency comes from a doubtful curve fit.

Assay: qHTS screen for small molecules that inhibit ELG1-dependent DNA repair in human embryonic kidney (HEK293T) cells expressing luciferase-tagged ELG1; further: nearly all actives have a fitted effect of over 55% in size
Conditions: HEK293T ELG1-luciferase reporter, luminescence, 16 h, DNA damage induced by 5-fluorouridine; activity change, negative = inhibition: at 46.1 µM (top of the series)
In short: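 Reporter activity after DNA damage by 5-fluorouridine is monitored. Compound-treated cells incubate 16 hr at 37 °C, then ONE-Glo is added for 30 min before luminescence reading.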
On the % scale 0 is the no-effect control and ±100 the full control effect; potency means the concentration at half of the fitted maximal effect.

SMILES | Potency | activity change, negative = inhibition
CC(Cc1ccccc1)NC(=O)c1ccc(N)cc1 (stereo not given) | inconclusive: 20.6 µM [activator, partial curve] | –
O=C(C[N+]12CCC(CC1)C(OC(=O)c1ccccc1)C2)c1ccc([N+](=O)[O-])cc1 (stereo not given) | inconclusive: 14.6 µM [inhibitor, single point] | –
Cc1c(/C=N/O)c2ccccc2n1C | inconclusive: 29.1 µM [activator, single point] | –
COc1ccccc1Oc1c(C)oc2cc(OC(=O)N(C)C)ccc2c1=O | inconclusive: 18.3 µM [inhibitor, partial curve, poor fit] | –
COC(=O)C1=C(c2ccccc2OCc2ccccc2)C[C@@H]2CC[C@H]1N2C(=O)NCc1ccccc1 | inconclusive: 29.1 µM [inhibitor, single point] | –
CN1CCN(c2ccc(NC(=O)C(C)(C)C)cc2)CC1 | inconclusive: 20.6 µM [activator, single point] | –
CCN(C1CCCCC1)S(=O)(=O)c1ccc(S(=O)(=O)N(CC(=O)Nc2ccccc2)C2CC2)cc1 | inconclusive: 20.6 µM [inhibitor, partial curve] | –
O=C1c2cccc3cccc(c23)C(=O)N1CCN1CCN(C(=S)Nc2ccccc2)CC1 | active: 16.4 µM | –
O=C1/C(=C/c2cc([N+](=O)[O-])ccc2Cl)N2CCC1CC2 | – | inactive: 19.4%
CCC(C)N1C(=O)NC(=O)C2(Cc3c(ccc4ccccc34)N(C)C2)C1=O (stereo not given) | inconclusive: 22.4 µM [inhibitor, partial curve] | –
CCOC(=O)C1CCCN(c2ccc([N+](=O)[O-])c3nonc23)C1 (stereo not given) | inconclusive: 29.1 µM [inhibitor, single point] | –
Cc1nn(-c2ccccc2)c(Cl)c1/C=N\NC(=O)c1cnccn1 | inconclusive: 18.4 µM [activator, partial curve] | –
Cc1cc(S(=O)(=O)NC(C)C)ccc1OCC(=O)N1CCN(Cc2ccc3c(c2)OCO3)CC1 | – | inactive: -25.9%
O=C(O)c1ccccc1-c1ccc(C=C2C(=O)N(c3ccccc3)C(=S)N(c3ccccc3)C2=O)o1 | inconclusive: 6.31 µM [inhibitor, single point] | –
O=c1c(O)c(-c2ccc(O)c(O)c2)oc2cc(O)cc(O)c12 | inconclusive: 1.83 µM [inhibitor, partial curve, poor fit] | –
O=C(CN1CCCCC1)NCC(=O)Nc1ccc(Br)cc1C(=O)c1ccccc1 | – | inactive: -4.23%
O=C(Cn1cnc2sc3c(c2c1=O)CCCC3)NCCC(=O)N1CCC2(CC1)OCCO2 | – | inactive: -1.33%
CCCCCn1c(N)c(C(=O)NCCN2CCOCC2)c2nc3ccccc3nc21 | inconclusive: 29.1 µM [inhibitor, single point] | –
Cc1ccc(-n2c(O)c(C=Nc3ccccc3N)c(=O)[nH]c2=O)cc1C | inconclusive: 23.1 µM [activator, single point] | –
O=C(NC(c1ccc(Cl)cc1)P(=O)(Oc1ccccc1)Oc1ccccc1)OCc1ccccc1 (stereo not given) | inconclusive: 4.11 µM [inhibitor, full curve] | –

Single records (already shown).
O=C(O)c1ccccc1-c1ccc(C=C2C(=O)N(c3ccccc3)C(=S)N(c3ccccc3)C2=O)o1 is listed as Potency: inconclusive: 6.31 µM [inhibitor, single point]
CCN(C1CCCCC1)S(=O)(=O)c1ccc(S(=O)(=O)N(CC(=O)Nc2ccccc2)C2CC2)cc1 is listed as Potency: inconclusive: 20.6 µM [inhibitor, partial curve]
Cc1nn(-c2ccccc2)c(Cl)c1/C=N\NC(=O)c1cnccn1 is listed as Potency: inconclusive: 18.4 µM [activator, partial curve]

(continued)

SMILES | Potency | activity change, negative = inhibition
CCOP(=O)(OCC)C(NC(=O)c1cccc(C)c1)C(Cl)(Cl)Cl (stereo not given) | inconclusive: 6.51 µM [inhibitor, single point] | –
CC(=O)c1ccc(Oc2ccc(C(=O)c3ccc(C)c(C)c3)cc2[N+](=O)[O-])cc1 | inconclusive: 23.1 µM [activator, single point] | –
CN(C)C(=O)Oc1cccc2c(OC(=O)N(C)C)cccc12 | inconclusive: 20.6 µM [activator, partial curve, poor fit] | –
COC(=O)C1=C(c2cccc(OCc3ccccc3)c2)C[C@@H]2CC[C@H]1N2C(=O)NCc1ccc(OC)c(OC)c1 | inconclusive: 23.1 µM [inhibitor, single point] | –
Cc1cccc(-n2c(O)c(C=Nc3ccc(Br)cn3)c(=O)[nH]c2=O)c1 | inconclusive: 20.6 µM [inhibitor, partial curve, poor fit] | –
CC(C)(C)NC(=O)C1CC2CCCCC2CN1 (stereo not given) | inconclusive: 0.73 µM [inhibitor, partial curve, poor fit] | –
COc1ccc(OC(=O)Nc2ccc([N+](=O)[O-])cc2OC)cc1 | inconclusive: 18.3 µM [inhibitor, single point] | –
C=CCC1C(=O)NC(=S)NC1=O | – | inactive: 3.2%
COc1ccc(-n2c(O)c(C(C)=NCC3CCCO3)c(=O)[nH]c2=O)cc1 (stereo not given) | inconclusive: 14.6 µM [activator, partial curve, poor fit] | –
COc1cccc(C(=O)N2C[C@H]3C[C@@H](C2)c2cccc(=O)n2C3)c1 | inconclusive: 0.082 µM [activator, partial curve, poor fit] | –
COc1cc2c(cc1OC)CN(c1ccc([N+](=O)[O-])c(C(F)(F)F)c1)CC2 | inconclusive: 23.1 µM [inhibitor, partial curve] | –
C[C@]12CCC(=O)C(O)=C1CC[C@@H]1[C@@H]2CC[C@]2(C)C(=O)CC[C@@H]12 | – | inconclusive: 5.87% [activator]
NP(=O)(Oc1ccccc1Cl)Oc1ccccc1Cl | inconclusive: 13 µM [activator, partial curve] | –
CCCCn1c(=O)c(C=Nc2ccc(Cl)cc2)c(O)n(Cc2ccco2)c1=O | – | inactive: -14.6%
Cc1c(OC(=O)N(C)C)ccc2c1O/C(=C\c1ccco1)C2=O | inconclusive: 14.6 µM [activator, partial curve] | –
O=C1NC(=O)N(CC2CCCO2)C(=O)/C1=C/c1cccs1 (stereo not given) | inconclusive: 23.1 µM [activator, partial curve] | –
CCn1cc(C=C2C(=O)N(C)C(=O)N(C)C2=O)c2ccccc21 | – | inactive: -9.64%
COC1C(OC(=O)c2ccc(C)[nH]2)C(O)C(Oc2ccc3c(O)c(NC(=O)c4ccc(O)c(CC=C(C)C)c4)c(=O)oc3c2Cl)OC1(C)C (stereo not given) | inconclusive: 29.1 µM [inhibitor, single point] | –
Cn1cccc1C1CCCN1CC(=O)Nc1ccc(C#N)c(Cl)c1 (stereo not given) | inconclusive: 14.6 µM [inhibitor, partial curve] | –
COC(=O)c1c(C)oc2ccc(OC(=O)N3CCOCC3)cc12 | inconclusive: 25.9 µM [inhibitor, single point] | –
